PubChem BioAssay AID720505, Drosophila RNAi Screening Center, 2013

Assay: 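Genes needed for store-operated calcium entry in fly cells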 (primary screen)
Cell system: Drosophila S2R+ cells
Reagents: long dsRNA against Drosophila genes
Conditions: thapsigargin (2 µM) in calcium-free buffer to empty internal stores, then 2 mM calcium added back
Detection: 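Stores emptied by 2 µM thapsigargin without calcium, then 2 mM calcium re-added; fluo-4 fluorescence followed by FLIPR in 384-well plates, per-well averaged endpoint, raw; two screen passes, some wells retested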
Direction: calcium signal and retest calcium signal: higher = more calcium entry after store depletion
Rule for the call: 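About 1500 genes called as lowering calcium entry, by varying amounts, judged against per-plate control wells with STIM1 as positive and Rho1 as negative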
Calls: active = called as lowering calcium entry; inactive = not called
The deposit covers about 20,000 reagents; shown is an unselected part of those that have a named target and a result. Of all reagents, about 2,100 (10%) got an active call. 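Raw plate signals without normalisation; calls rest on control-based scores that were not deposited; replicate 2 separates called from uncalled poorly.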 A number with no mark means an inactive call. Not given: the amount of reagent, the time to read-out.

How did the screen score Fkbp12 [DRSC07425]?
calcium signal, replicate 1: 182; calcium signal, replicate 2: 126

How did the screen score Golgin97 [DRSC06895]?
calcium signal, replicate 1: 153; calcium signal, replicate 2: 115

For EbpII [DRSC04637], what does the deposit list?
calcium signal, replicate 1: 150; calcium signal, replicate 2: 76.1

What did the screen give for EbpII [DRSC22484]?
calcium signal, replicate 1: 145; calcium signal, replicate 2: 220

For CG6726 [DRSC16101], what does the deposit list?
calcium signal, replicate 1: 171; calcium signal, replicate 2: 131

How did the screen score Atpalpha [DRSC14119]?
calcium signal, replicate 1: 177; calcium signal, replicate 2: 328

With CG33252 [DRSC19162], what was measured?
calcium signal, replicate 1: 83.8; calcium signal, replicate 2: 92.9

For MED8 [DRSC06426], what does the deposit list?
calcium signal, replicate 1: 120; calcium signal, replicate 2: 127

For SPR [DRSC17886], how do the results read?
calcium signal, replicate 1: 133; calcium signal, replicate 2: 92.3

For SPR [DRSC18114], how do the results read?
calcium signal, replicate 1: 166; calcium signal, replicate 2: 132

For SPR [DRSC21557], how do the results read?
calcium signal, replicate 1: 179; calcium signal, replicate 2: 97.5

How did the screen score CG4702 [DRSC15626]?
calcium signal, replicate 1: 117; calcium signal, replicate 2: 125

With etaTry [DRSC07613], what was measured?
calcium signal, replicate 1: 135; calcium signal, replicate 2: 214

What did the screen give for Pxn [DRSC08685]?
calcium signal, replicate 1: 78.9 (active); calcium signal, replicate 2: 74.1; retest calcium signal, replicate 1: 102; retest calcium signal, replicate 2: 107

With CG33922 [DRSC00050], what does the deposit list?
calcium signal, replicate 1: 84.5 (active); calcium signal, replicate 2: 169

What is on record for CG15649 [DRSC04240]?
calcium signal, replicate 1: 174; calcium signal, replicate 2: 86

With CG13694 [DRSC00363], what was measured?
calcium signal, replicate 1: 171; calcium signal, replicate 2: 98.2

How did the screen score Nepl8 [DRSC02759]?
calcium signal, replicate 1: 70.9 (active); calcium signal, replicate 2: 97.1

How did the screen score IFT46 [DRSC02462]?
calcium signal, replicate 1: 69.5; calcium signal, replicate 2: 122

Part of the list above, set out differently.
gene | dsRNA | calcium signal, replicate 1 | calcium signal, replicate 2 | retest calcium signal, replicate 1 | retest calcium signal, replicate 2
CG4702 | DRSC15626 | 117 | 125 | – | –
etaTry | DRSC07613 | 135 | 214 | – | –
